Source: patent publication WO2017153426A1 (dated 2017)
Results are given in words; binding and its absence hold for the method and conditions named. Some results given as binding are weak or reduced against the parent protein; the word gives no strength.

By UniProt entry, the sequences of proteins in these tests, tags left out. Where a name states a change or a piece, a line headed by the entry shows the natural chain unless it says otherwise.
UniProt Q969D9: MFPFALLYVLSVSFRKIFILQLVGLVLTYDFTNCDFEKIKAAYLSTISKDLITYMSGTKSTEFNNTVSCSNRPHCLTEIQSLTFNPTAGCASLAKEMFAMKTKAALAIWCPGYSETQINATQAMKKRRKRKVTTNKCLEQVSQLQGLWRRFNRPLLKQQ

Target: full length TSLP: his (human) (UniProt Q969D9)
Assay: ForteBio Octet BLI, TSLP:his on anti-his sensor tips, dAb at 500 or 1000 nM

binding: binds
B1: DOM30h-440-81/86 (other)
chain: DIQMTQSPSSLSASVGDRVTITCRASRPIRNWLDWYQQKPGKAPKLLIWGASHLQSGVPSRFSGSGSGTDFTLTISSLQPEDFATYYCVQIGEDPVTFGQGTKVEIK
